The results in this text go back to publication PMC4742146.

These are yes or no findings as the source states them, for the method shown. Binding seen in cells or lysates may run through a third protein. Some results given as binding are weak or reduced against the parent protein; the word gives no strength. For part of these data: Sequences can lack the tags named with a protein.

Experiment [1] deals with T1, GFP-tagged full-length MAGI3 (UniProt Q5TCQ9).
T1 sequence: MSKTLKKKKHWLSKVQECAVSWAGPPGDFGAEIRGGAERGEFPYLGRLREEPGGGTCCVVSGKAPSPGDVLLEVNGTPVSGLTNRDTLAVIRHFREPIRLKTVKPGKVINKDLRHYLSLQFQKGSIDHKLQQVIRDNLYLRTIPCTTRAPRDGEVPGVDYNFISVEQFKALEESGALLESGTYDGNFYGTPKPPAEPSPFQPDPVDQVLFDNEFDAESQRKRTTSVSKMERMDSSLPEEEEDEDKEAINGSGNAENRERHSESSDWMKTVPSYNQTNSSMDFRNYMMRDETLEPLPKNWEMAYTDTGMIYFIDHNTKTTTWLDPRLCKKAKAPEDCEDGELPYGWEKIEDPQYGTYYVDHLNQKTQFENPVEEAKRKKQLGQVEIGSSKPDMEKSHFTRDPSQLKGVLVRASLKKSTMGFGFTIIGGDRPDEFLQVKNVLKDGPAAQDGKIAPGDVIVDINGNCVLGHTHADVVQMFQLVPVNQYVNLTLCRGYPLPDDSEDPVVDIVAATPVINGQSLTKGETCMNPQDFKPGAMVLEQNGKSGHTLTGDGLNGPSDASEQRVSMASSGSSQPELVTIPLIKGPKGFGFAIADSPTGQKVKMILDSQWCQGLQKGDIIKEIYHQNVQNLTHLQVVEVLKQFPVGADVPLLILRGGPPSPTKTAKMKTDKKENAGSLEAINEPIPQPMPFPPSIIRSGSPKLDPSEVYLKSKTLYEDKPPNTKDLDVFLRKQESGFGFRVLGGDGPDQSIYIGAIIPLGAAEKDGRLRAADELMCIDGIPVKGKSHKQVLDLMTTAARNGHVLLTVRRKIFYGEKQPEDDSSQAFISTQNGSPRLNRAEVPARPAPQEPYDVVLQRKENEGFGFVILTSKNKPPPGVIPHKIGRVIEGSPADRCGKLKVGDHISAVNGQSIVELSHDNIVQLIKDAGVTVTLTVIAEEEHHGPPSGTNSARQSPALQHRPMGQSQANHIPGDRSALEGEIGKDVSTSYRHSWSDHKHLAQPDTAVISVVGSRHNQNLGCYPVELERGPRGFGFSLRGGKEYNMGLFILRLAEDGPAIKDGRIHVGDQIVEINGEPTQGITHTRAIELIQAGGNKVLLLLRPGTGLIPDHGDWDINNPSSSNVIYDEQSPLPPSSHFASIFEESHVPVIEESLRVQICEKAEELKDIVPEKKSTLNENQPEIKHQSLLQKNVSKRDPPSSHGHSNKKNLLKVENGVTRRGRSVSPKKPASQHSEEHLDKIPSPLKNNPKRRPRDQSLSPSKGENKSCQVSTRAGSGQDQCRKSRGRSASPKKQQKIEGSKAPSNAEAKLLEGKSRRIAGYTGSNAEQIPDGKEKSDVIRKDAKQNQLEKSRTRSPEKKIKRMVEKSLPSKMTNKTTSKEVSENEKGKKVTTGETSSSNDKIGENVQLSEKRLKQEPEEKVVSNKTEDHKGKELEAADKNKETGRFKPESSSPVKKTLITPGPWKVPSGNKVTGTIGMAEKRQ
Put plainly: co-IP; COS-7 cells transfected with Flag-β-catenin and/or GFP-MAGI3; lysates immunoprecipitated with anti-GFP, blotted with anti-Flag.

Experiment [2] concerns the target T2, MAGI3, endogenous in C6 glioma cells (rat (endogenous in C6)) (UniProt Q9JK71).
T2 sequence: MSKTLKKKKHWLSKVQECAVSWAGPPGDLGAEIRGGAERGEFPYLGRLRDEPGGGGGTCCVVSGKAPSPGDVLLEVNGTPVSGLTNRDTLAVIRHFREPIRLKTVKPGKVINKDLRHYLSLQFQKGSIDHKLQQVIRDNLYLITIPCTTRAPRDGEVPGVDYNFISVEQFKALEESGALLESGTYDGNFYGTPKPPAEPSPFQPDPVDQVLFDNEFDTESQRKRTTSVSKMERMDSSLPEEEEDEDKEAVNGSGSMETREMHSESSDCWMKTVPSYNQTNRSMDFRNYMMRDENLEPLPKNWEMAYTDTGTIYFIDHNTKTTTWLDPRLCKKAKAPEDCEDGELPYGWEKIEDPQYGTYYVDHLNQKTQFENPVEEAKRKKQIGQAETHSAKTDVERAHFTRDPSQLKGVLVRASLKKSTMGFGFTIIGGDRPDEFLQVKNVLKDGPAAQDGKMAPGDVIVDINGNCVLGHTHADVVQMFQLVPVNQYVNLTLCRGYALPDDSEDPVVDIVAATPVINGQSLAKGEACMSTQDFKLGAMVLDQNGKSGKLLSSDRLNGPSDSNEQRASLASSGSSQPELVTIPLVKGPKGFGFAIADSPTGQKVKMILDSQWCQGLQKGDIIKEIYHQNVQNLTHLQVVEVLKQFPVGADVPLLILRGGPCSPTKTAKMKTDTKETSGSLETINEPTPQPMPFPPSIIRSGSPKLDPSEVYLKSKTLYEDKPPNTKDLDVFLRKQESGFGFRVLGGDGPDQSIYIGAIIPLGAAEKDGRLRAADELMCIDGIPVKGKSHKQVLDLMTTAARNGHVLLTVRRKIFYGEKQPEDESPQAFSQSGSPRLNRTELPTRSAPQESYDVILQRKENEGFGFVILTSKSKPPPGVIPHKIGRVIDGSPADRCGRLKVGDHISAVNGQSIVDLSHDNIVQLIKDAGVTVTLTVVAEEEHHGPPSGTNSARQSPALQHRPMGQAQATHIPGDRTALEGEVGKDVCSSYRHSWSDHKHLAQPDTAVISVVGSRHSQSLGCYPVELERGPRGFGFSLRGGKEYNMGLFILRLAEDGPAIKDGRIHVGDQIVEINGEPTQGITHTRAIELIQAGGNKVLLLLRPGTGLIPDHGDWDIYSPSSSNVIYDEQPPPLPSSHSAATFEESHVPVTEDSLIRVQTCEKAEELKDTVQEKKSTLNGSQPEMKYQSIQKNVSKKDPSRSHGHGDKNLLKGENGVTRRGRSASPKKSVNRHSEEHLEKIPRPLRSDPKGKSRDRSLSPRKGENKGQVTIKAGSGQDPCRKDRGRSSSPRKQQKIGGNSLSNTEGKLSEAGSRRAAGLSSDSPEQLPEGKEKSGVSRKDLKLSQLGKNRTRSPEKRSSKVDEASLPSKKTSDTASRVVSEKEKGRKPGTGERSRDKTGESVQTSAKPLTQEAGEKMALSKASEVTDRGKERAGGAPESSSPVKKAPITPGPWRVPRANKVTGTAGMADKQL
Put plainly: co-IP; endogenous proteins; C6 cell lysates immunoprecipitated with anti-MAGI3, blotted with anti-β-catenin.

In experiment [3] the target is GST-β-catenin fusion protein (UniProt P35222). Put plainly: pull-down; GST or GST-β-catenin fusion proteins used to pull down GFP-tagged full-length MAGI3 from transfected COS-7 cell lysates; western blot with anti-GFP; only the target purified. For orientation: A western blot detects proteins with antibodies after separation by electrophoresis.

On to “Flag-tagged wild-type β-catenin (from UniProt P35222 1-781)”, for which the binding entry in experiment [1] is “binds”.

B1: β-catenin, endogenous in C6 glioma cells (protein, UniProt Q9WU82 1-781)
chain: MATQADLMELDMAMEPDRKAAVSHWQQQSYLDSGIHSGATTTAPSLSGKGNPEEEDVDTSQVLYEWEQGFSQSFTQEQVADIDGQYAMTRAQRVRAAMFPETLDEGMQIPSTQFDAAHPTNVQRLAEPSQMLKHAVVNLINYQDDAELATRAIPELTKLLNDEDQVVVNKAAVMVHQLSKKEASRHAIMRSPQMVSAIVRTMQNTNDVETARCTAGTLHNLSHHREGLLAIFKSGGIPALVKMLGSPVDSVLFYAITTLHNLLLHQEGAKMAVRLAGGLQKMVALLNKTNVKFLAITTDCLQILAYGNQESKLIILASGGPQALVNIMRTYTYEKLLWTTSRVLKVLSVCSSNKPAIVEAGGMQALGPHLTDPSQRLVQNCLWTLRNLSDAATKQEGMEGLLGTLVQLLGSDDINVVTCAAGILSNLTCNNYKNKMMVCQVGGIEALVRTVLRAGDREDITEPAICALRHLTSRHQEAEMAQNAVRLHYGLPVVVKLLHPPSHWPLIKATVGLIRNLALCPANHAPLREQGAIPRLVQLLVRAHQDTQRRTSMGGTQQQFVEGVRMEEIVEGCTGALHILARDVHNRIVIRGLNTIPLFVQLLYSPIENIQRVAAGVLCELAQDKEAAEAIEAEGATAPLTELLHSRNEGVATYAAAVLFRMSEDKPQDYKKRLSVELTSSLFRTEPMAWNETADLGLDIGAQGEALGYRQDDPSYRSFHSGGYGQDALGMDPMMEHEMGGHHPGADYPVDGLPDLGHAQDLMDGLPPGDSNQLAWFDTDL
With B1, the binding result in experiment [2] is on record as “binds”.

B2: GFP-tagged full-length MAGI3 (protein, UniProt Q5TCQ9 1-1481)
chain: T1 sequence
Take B2: in experiment [3], the binding result was “binds”.
